In paper PMC3757036 one finds binding data, which are given here for two substances.

Amino acid sequences for entries named in this document (tags omitted).
UniProt Q9D752: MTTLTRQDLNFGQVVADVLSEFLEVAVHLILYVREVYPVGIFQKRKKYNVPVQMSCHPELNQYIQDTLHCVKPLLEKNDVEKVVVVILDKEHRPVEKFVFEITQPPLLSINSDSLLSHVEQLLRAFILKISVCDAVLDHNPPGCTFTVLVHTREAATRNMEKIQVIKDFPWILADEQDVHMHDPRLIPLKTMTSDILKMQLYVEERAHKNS
UniProt P24860: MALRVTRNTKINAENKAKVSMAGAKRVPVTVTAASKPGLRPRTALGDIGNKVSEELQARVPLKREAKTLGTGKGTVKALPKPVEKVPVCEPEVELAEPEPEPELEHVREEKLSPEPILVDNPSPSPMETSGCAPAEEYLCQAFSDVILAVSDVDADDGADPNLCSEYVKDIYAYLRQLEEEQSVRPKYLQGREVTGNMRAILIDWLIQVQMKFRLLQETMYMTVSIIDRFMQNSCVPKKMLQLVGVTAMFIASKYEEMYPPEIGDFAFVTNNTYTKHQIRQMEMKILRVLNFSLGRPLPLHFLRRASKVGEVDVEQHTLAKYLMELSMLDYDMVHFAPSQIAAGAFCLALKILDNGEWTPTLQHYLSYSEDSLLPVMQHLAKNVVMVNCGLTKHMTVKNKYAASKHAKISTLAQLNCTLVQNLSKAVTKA
UniProt Q5DW34: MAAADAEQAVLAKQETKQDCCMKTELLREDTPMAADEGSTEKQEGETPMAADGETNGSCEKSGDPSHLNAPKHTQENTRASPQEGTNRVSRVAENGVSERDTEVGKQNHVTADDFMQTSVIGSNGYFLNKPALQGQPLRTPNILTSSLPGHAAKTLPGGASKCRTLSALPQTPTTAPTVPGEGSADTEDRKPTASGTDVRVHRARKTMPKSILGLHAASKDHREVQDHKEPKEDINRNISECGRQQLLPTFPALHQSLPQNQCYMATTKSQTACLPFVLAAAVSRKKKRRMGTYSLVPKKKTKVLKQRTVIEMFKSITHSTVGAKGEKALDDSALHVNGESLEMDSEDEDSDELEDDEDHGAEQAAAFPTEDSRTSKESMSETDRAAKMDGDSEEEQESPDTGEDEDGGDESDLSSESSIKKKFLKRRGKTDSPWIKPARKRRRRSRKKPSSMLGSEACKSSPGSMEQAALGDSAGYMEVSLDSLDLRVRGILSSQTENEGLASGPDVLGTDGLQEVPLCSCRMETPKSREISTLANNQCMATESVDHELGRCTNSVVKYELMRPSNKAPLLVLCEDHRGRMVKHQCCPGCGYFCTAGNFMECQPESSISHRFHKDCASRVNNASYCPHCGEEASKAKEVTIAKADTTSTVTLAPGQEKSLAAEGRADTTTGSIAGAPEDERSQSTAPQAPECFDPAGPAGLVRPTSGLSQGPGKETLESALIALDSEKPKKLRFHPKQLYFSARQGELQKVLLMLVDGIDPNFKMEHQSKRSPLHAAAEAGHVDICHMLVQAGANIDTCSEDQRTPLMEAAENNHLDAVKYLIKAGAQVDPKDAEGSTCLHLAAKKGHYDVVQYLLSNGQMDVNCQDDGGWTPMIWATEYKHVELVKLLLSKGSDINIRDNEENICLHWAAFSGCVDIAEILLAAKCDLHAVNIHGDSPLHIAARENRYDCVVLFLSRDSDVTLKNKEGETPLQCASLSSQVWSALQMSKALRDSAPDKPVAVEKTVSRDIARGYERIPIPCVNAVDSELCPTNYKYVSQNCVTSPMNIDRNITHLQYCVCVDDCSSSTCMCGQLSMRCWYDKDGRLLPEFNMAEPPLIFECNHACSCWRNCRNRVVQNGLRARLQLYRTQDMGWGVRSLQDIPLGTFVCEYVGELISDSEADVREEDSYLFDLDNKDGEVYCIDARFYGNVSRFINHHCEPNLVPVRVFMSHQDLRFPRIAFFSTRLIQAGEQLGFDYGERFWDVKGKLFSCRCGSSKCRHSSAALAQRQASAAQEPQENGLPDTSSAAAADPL
UniProt Q9Z148: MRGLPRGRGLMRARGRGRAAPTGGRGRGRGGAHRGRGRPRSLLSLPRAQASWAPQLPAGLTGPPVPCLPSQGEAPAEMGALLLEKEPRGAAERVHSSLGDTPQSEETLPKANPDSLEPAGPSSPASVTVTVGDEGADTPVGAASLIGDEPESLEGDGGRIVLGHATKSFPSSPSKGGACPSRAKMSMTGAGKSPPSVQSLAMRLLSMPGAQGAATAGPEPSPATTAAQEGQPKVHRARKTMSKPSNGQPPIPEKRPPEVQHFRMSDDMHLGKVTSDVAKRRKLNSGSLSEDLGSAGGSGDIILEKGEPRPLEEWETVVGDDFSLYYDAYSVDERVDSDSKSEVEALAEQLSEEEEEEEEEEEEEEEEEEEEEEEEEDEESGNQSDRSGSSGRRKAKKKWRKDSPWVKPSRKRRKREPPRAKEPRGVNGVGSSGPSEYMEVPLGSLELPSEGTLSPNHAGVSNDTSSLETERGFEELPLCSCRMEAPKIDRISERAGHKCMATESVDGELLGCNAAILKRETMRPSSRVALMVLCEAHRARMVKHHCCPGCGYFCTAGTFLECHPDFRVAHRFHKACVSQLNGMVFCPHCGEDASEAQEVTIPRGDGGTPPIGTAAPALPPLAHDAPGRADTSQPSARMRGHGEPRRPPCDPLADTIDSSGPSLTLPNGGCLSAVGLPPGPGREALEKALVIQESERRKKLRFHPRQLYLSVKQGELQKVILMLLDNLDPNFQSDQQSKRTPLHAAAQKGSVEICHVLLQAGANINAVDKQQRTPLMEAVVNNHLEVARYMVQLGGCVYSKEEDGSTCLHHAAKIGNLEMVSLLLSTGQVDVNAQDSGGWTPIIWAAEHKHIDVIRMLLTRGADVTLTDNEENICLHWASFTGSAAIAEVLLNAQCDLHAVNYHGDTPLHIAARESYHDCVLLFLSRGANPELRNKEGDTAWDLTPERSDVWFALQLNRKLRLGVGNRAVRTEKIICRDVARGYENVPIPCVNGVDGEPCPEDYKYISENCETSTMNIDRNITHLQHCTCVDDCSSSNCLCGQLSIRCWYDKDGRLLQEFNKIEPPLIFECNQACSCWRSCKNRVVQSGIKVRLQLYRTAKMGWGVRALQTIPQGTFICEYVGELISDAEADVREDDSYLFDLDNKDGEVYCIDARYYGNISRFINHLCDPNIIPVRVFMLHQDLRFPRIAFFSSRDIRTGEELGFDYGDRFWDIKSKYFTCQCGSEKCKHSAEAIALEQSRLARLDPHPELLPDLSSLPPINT

Common to all, as to test: co-IP; protein extract of NIH3T3 fibroblasts transfected with HA-Mad2l2; precipitated with antibodies against G9a, GLP, Cdk1, pCdk1, Cyclin B1 or the HA tag, IgG as negative control; immunoblot of the precipitates
(In western blotting, separated proteins are transferred to a membrane and probed.)

One test has as its target HA-Mad2l2 (mouse) (UniProt Q9D752).
Test [1] concerns the target Cyclin B1 (mouse (endogenous in NIH3T3)) (UniProt P24860).
In test [2] the target is GLP (mouse (endogenous in NIH3T3)) (UniProt Q5DW34).
The target in test [3] is G9a (mouse (endogenous in NIH3T3)) (UniProt Q9Z148).

Results are given in words; binding and its absence hold for the method and conditions named. Binding seen in cells or lysates may run through a third protein. Some binding calls cover weakened binding; strength is not graded here.

On to “G9a (from UniProt Q9Z148 1-1263) (enzyme)”, for which, in the test with HA-Mad2l2 (mouse), the binding result is listed as “binds”.

As to HA-Mad2l2 (from UniProt Q9D752 1-211), the binding result in test [1] was “no binding”; in test [2], “binds”; in test [3], “binds”.
